# Test results published in PubChem BioAssay AID1671190 (National Center for Advancing Translational Sciences (NCATS), 2021).
# The chains behind the UniProt entries cited, without tags or fusion partners. Where a name states a change or a piece, a line headed by the entry shows the natural chain unless it says otherwise.
# UniProt P18054: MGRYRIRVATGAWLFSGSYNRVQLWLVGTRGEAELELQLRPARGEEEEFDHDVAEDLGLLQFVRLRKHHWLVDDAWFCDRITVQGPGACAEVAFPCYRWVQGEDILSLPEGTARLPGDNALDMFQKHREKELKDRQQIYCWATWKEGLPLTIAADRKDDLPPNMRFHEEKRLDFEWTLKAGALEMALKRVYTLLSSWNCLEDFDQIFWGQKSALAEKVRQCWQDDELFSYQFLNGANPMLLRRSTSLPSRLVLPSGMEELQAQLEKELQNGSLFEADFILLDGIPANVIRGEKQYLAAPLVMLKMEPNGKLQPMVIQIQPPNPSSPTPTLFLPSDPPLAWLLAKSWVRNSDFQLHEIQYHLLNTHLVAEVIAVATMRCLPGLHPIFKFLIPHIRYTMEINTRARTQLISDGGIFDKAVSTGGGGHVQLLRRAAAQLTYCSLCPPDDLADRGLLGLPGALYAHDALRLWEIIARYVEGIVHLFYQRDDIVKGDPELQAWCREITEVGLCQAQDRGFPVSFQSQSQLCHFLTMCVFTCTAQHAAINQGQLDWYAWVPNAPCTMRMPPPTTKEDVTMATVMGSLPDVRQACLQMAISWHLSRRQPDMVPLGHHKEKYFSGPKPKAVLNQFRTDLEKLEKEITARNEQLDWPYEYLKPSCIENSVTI
# Out of some 580,000 compounds screened, about 6,100 (1.1%) were called active. Inconclusive results, whose numbers are uncertain, are shown with a selection of clear calls. The call rests on the fitted dose curve; in most records, active means well fitted inhibition curve with a large enough effect; inconclusive means small, poorly fitted or top-dose-only effect, or another doubt; inactive means no such curve, though single readings can be large or run the other way. A potency beside an inconclusive call is a rough fit, not a confirmed value.
# Molecular target: Polyunsaturated fatty acid lipoxygenase ALOX12 (Homo sapiens) (UniProt P18054)
# Test: Primary qHTS assay for inhibitors of human arachidonate 12S-lipoxygenase (ALOX12): Round 2
# Conditions: purified 12hLO, xylenol orange hydroperoxide absorbance; activity change, negative = inhibition: at 108 µM (top of the series) unless noted
# Procedure, shortened: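 Purified human 12hLO (150 nM final) in 25 mM Hepes, 0.01% Triton X-100, pH 7.0 was preincubated 15 min at room temperature with compound. Then 40 uM arachidonic acid was added, 30 min. Hydroperoxide was read by Fe-XO absorbance ratio 573/405 nm.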
# On the % scale 0 is the no-effect control and ±100 the full control effect; potency means the concentration at half of the fitted maximal effect.
Structure (SMILES),"activity change, negative = inhibition",Potency
COc1cc(O)c(C(CC(=O)N2CCCC(C)C2)c2cc(OC)c(OC)c(OC)c2)c(OC)c1 (stereo not given),inactive: -49.9%,
CCOc1ccc(N2CC(NC(=O)c3cccs3)CC2=O)cc1 (stereo not given),,"inconclusive: 0.224 µM [inhibitor, full curve, poor fit]"
COc1ccc(-c2nc(CSCC(=O)Nc3ccc(C#N)cc3)co2)cc1,inactive: -30.1%,
O=C(O)c1cccc(N/N=C(\N=Nc2ccccc2)c2ccccc2)c1,,"inconclusive: 1.58 µM [inhibitor, full curve, poor fit]"
NC(=O)CNS(=O)(=O)c1ccc(C(=O)O)cc1,,"inconclusive: 50.1 µM [inhibitor, single point]"
Cc1ccc([N+](=O)[O-])c(OCCN2CCC(Cc3ccccc3)CC2)c1,,"inconclusive: 17.8 µM [inhibitor, partial curve]"
COc1ccc(-c2cc(C(=O)OC(C)C(=O)Nc3c(C)n(C)n(-c4ccccc4)c3=O)c3ccccc3n2)cc1 (stereo not given),inactive: -19.6%,
C/C(=N\NC(=O)c1cc(-c2cccc([N+](=O)[O-])c2)n[nH]1)c1ccccc1O,inactive: -23%,
O=c1[nH]c(=S)[nH]cc1Oc1ccc(Cl)cc1,,"inconclusive: 50.1 µM [inhibitor, partial curve, poor fit]"
COc1ccc(Br)cc1/C=N/OC(C)=O,inactive: -2.16%,
C[C@@H]1CN([C@H](C)CO)S(=O)(=O)c2ccc(Br)cc2O[C@H]1CN(C)C(=O)Nc1cccc(F)c1,,"inconclusive: 112 µM [inhibitor, partial curve, poor fit]"
Cc1sc(NC(=O)CSc2nc(O)cc(=O)[nH]2)nc1-c1ccccc1,inactive: -20.8%,
COC(=O)[C@@H]1Cc2c([nH]c3ccccc23)C(C)N1C(=O)c1ccccc1 (stereo not given in full),,"inconclusive: 35.5 µM [inhibitor, single point]"
O=C1CC(c2nc(-c3ccc(Cl)cc3)no2)CN1c1ccc2c(c1)OCCO2 (stereo not given),inactive: -29.9%,
CCOC(=O)CC(=O)CSc1nc2c(c(C)c1C#N)CCC2,,"inconclusive: 35.5 µM [inhibitor, partial curve, poor fit]"
COc1ccc(C2C(=O)N(C3CCCCCC3)CC(=O)N2Cc2ccc(C)cc2)cc1 (stereo not given),inconclusive: -34.5% [inhibitor],
COC(=O)c1cc(=O)n(-c2ccccc2)c(=Nc2ccccc2)s1,inactive: -15.2%,
Nc1nccnc1C(=O)NCCOc1ccccc1,inactive: 2.42%,
C[C@H]1COc2cc(N3CCCCC3)ccc2S(=O)(=O)N1,,"inconclusive: 112 µM [inhibitor, single point]"
Cc1cc(NC(=O)CN2CCN(C(=O)c3ccc(C)c(F)c3)CC2)no1,,"inconclusive: 44.7 µM [inhibitor, partial curve, poor fit]"

# 5 structures out of the list, arranged by formula weight, low to high.
Structure (SMILES),"activity change, negative = inhibition",Potency
CCOc1ccc(N2CC(NC(=O)c3cccs3)CC2=O)cc1 (stereo not given),,"inconclusive: 0.224 µM [inhibitor, full curve, poor fit]"
Cc1cc(NC(=O)CN2CCN(C(=O)c3ccc(C)c(F)c3)CC2)no1,,"inconclusive: 44.7 µM [inhibitor, partial curve, poor fit]"
C/C(=N\NC(=O)c1cc(-c2cccc([N+](=O)[O-])c2)n[nH]1)c1ccccc1O,inactive: -23%,
Cc1sc(NC(=O)CSc2nc(O)cc(=O)[nH]2)nc1-c1ccccc1,inactive: -20.8%,
C[C@@H]1CN([C@H](C)CO)S(=O)(=O)c2ccc(Br)cc2O[C@H]1CN(C)C(=O)Nc1cccc(F)c1,,"inconclusive: 112 µM [inhibitor, partial curve, poor fit]"
